PMC12848076, “Identification of two odorant receptors tuned to alarm pheromone compounds in the honey bee Apis mellifera” (Communications Biology, 2025)
Marks after values point to notes of the source that are not given here.

The molecules below were run on T1, AmelOR136 (assay: single sensillum recording, ab3A OSN, dose-response). Conditions: agonist; estimated airborne amount in stimulus, not a concentration; vs mineral oil; full curve only in Figure 5A.
T1 construct: full-length ORF, codon-optimized, pUAST.attB at 86F8; expressed in ab3A OSNs of D. melanogaster lacking OR22a/OR22b (empty neuron); endogenous Drosophila Orco as co-receptor; with Odorant receptor coreceptor
Type: cell-based, Apis mellifera

Going from `CCCCOC(C)=O` [butyl acetate] to `CC(=O)OCCC(C)C` [isopentyl acetate], the “dose of statistical significance” value falls from 56000 pmol to 27000 pmol.

Going from `CCOC(=O)CC(C)O` (stereo not shown) [ethyl-3-hydroxybutyrate] to `CC(=O)OCC(C)C` [isobutyl acetate], the “dose of statistical significance” value rises from 32000 pmol to 74000 pmol.
